The record followed here is paper PMC5722536.

No constants are given. Whether binding was seen depends on the method and setting. Binding seen in cells or lysates may run through a third protein. Some binding calls cover weakened binding; strength is not graded here.

For this assay, the target named is calreticulin (CALR) (human (endogenous in A549 and H460)) (UniProt P27797). The experiment in a line: co-IP; Pierce co-IP Kit; 10 ug anti-CALR or anti-PDIA3 antibody immobilised on resin; pre-cleared A549 and H460 cell lysates incubated overnight at 4°C; eluates analysed by western blot. On the technique in general: A western blot detects proteins with antibodies after separation by electrophoresis.

Consider “protein disulfide isomerase family A member 3 (PDIA3) (from UniProt P30101 25-505)”, for which the binding result is on record as “binds”.
